The assay concerns the target T1, AKTIP fused to the Gal4 DNA-binding domain (human) (UniProt Q9H8T0).
T1 sequence: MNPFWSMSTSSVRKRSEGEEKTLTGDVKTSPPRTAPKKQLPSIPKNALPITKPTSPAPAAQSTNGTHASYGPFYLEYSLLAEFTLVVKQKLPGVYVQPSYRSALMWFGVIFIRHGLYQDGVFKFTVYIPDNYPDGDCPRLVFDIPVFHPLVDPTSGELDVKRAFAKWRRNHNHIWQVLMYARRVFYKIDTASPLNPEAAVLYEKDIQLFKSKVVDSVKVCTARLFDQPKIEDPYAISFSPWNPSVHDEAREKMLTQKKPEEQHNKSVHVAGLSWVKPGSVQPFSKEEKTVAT
Briefly: two-hybrid.

Amino acid sequences for entries named in this document (tags omitted).
UniProt Q9UK41, whole entry: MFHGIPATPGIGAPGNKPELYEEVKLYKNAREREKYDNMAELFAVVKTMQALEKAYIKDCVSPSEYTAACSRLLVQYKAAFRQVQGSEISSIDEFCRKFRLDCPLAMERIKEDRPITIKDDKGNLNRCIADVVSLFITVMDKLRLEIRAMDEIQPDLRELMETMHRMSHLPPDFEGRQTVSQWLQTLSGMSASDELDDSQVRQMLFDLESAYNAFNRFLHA

No constants are given. Whether binding was seen depends on the method and setting. Some results given as binding are weak or reduced against the parent protein; the word gives no strength. Sequences can lack the tags named with a protein.

Regarding “VPS28 fused to the VP16 activation domain (from UniProt Q9UK41 1-221)”, the binding entry is “binds”.

The record behind these values is paper doi:10.1101/2020.01.19.911891.
